At least one read-out could not be matched to a standard name with certainty.
Key:
[1] = Example 12 cat probe formulation study and pharmacokinetic analysis; type: in vivo, cats; details: Group 2, oral gavage 3 mg/kg
Procedure: Similar to some of the other pharmacokinetic analyses conducted in dogs and cats, an additional pharmacokinetic study was conducted in cats to assess capromorelin formulations that allow sufficient drug to circulate to produce appetite stimulation and to define the capromorelin pharmacokinetic profile in cats. Briefly, twelve cats were randomized into Group 1 (six cats) and Group 2 (six cats). Group 1 received an intravenous formulation that included 0.75 mg/kg of capromorelin dissolved in sterile water and Group 2 received a previously tested formulation via oral gavage. Food consumption was determined daily for all cats. Specifically, animals were offered feed at approximately 11:00 AM, with the removal of feed at approximately 3:00 PM. Upon removal of feed, the amount consumed was calculated. […] Initially, the cats were given a seven day acclimation period to adjust to the experimental conditions and feed provided. After the acclimation period, on Day 0, all animals in Group 1 received an intravenous injection of the composition containing a dose of 0.75 mg/kg of capromorelin. On Day 0, the animals in Group 2 received an oral administration of the formulation via gavage at a dose of 3 mg/kg of capromorelin. […]

[2] = Example 13: serum capromorelin and pharmacokinetics; type: in vivo, cats with compromised kidney function; details: Group 2, subcutaneous 2 mg/kg
Procedure: The following study was undertaken to assess multiple points. First, the following experiments were conducted to determine if a formulation of capromorelin, when administered either intravenously or subcutaneously, can stimulate appetite in cats with compromised kidney function. Second, the following experiments were conducted to assess the pharmacokinetic profile of capromorelin in the serum of cats with compromised kidney function. Finally, the following experiments were conducted to determine if capromorelin accumulates in the serum after 14 days of treatment that is subcutaneously administered. Sixteen cats with compromised kidney function were acclimatized for the following study. Animals assigned to Group 1 (n=6) received an intravenous administration of a capromorelin formulation (i.e., capromorelin in sterile water) at a dose of 0.75 mg/kg on Day 0 of the experiment. […] Diet consumption was also monitored on study days −7 until day 13 for the animals in Groups 2 and 3 only. Referring to FIGS. 116 and 118, the pharmacokinetics of subcutaneously administered capromorelin were also determined. […] In addition, the mean fraction of the dose absorbed was determined by dividing the mean area under the curve (AUC)/dose of the animals in Group 2, which was divided by AUC/dose of the animals in Group 1. […]

For `CN1N=C2CCN(C(=O)[C@@H](COCc3ccccc3)NC(=O)C(C)(C)N)C[C@@]2(Cc2ccccc2)C1=O.O=C(O)C(O)C(O)C(=O)O` [capromorelin], the “time at which mean Cmax occurred” value [1] was 2 h and the “time at which Cmax was noted” value [2] was 0.42 h.

— patent US11090292B2, “Compositions and methods of use of an inappetance-controlling compound” (Aratana Therapeutics, Inc., priority 2012, dated 2021)
